Results reported in PubChem BioAssay AID2685 (National Center for Advancing Translational Sciences (NCATS), 2010).
This is one part of the list. These are further read-outs of the screen, such as a control signal, another cell line or another target. No call is given for them. Most of these compounds were active or inconclusive in the main read-out, so they are no random draw. Potencies come from curve fits of mixed quality, noted in brackets.

Assay: qHTS Assay for Lipid Storage Modulators in Drosophila S3 Cells;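 on cell number change: cells counted by Cell Tracker Red CMTPX staining in the red channel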
Conditions: BODIPY lipid droplet fluorescence, 18-24 h; for cell number change: measured here: cell count max response, cells fed with added oleic acid
Source text: NIH Molecular Libraries Probe Production Centers Network [MLPCN] NIH Chemical Genomics Center [NCGC] MLPCN Grant: 1 R03 MH085686-01 Assay Submitter (PI): Beller, Mathias; Max-Planck-Institut fur Biophysikalische Chemie NCGC Assay Overview: Storing lipids as a reservoir for energy or the anabolism of elementary metabolites is a common feature of probably all cells and is conserved from bacteria to humans. The universal cellular lipid storage organelle is the so-called lipid storage droplet (LD). Although ubiquitous, LDs share a simple structure composed of a hydrophobic core that harbors the storage lipids, which is shielded by a droplet-specific phospholipid monolayer to which proteins are attached. The current model of LD biogenesis involves an incorporation of the lipid core into the membrane leaflets of the endoplasmic reticulum (ER) followed by a subsequent budding-like maturation of a LD, which ultimately pinches off. Once released, LD volume can increase by localized lipogenesis or fusion of existing droplet. Storage lipids are re-mobilized enzymatically by lipase activity. Lipase regulation in the adipocyte is heavily studied and involves multiple components including catecholamine signaling, the LD-associated proteins Perilipin and comparative gene identification (CGI-58) and at least two lipases named hormone sensitive lipase (HSL) and adipocyte triglyceride lipase (ATGL). LD regulation outside of the adipocyte is poorly understood and only few components are known. However, there is an urgent need to learn more about ectopic fat depots as mislocalized storage of lipids, for example in the liver or muscle, is an eminent health problem associated with insulin resistance or the metabolic syndrome. We developed a laser-scanning cytometer assay to enable 1,536-well screening and combined the results of the small molecules screen with an RNAi database based on lipid storage.
Triacsin C (Sigma-Aldrich T-4540), an inhibitor of long-chain fatty acyl CoA synthetase that blocks synthesis of triglycerides, was used as a positive control for lipid under-storage. A total of 23 nL of compound solution of different concentrations were transferred to the assay plates using a Kalypsys pin tool equipped with a 1,536-pin array containing 10-nL slotted pins (FP1S10, 0.457-mm diameter, 50.8 mm long; V&P Scientific). One microliter of oleic acid (400 uM) was added, and the plate was lidded with stainless steel rubber gasket lined lids containing pinholes. […] Fluorescence was detected by excitation of the fluorophores with a 488-nm laser on an Acumen Explorer (TTP Lab Tech). The total intensity in channel 2 (500-530 nm) reflected lipid droplet accumulation. Cells were detected using channel 3 (575-640 nm) with 5-um width and 100-um depth filters. The ratio of the number of objects in PMT channel 2 over the number of objects in PMT channel 3 was also calculated. Percent activity was computed relative to an internal control (100% inhibited lipid droplet deposition due to the presence of 20 uM Triacsin C), which was added to 32 wells/plate.

[1] = measured here: cell number channel AC50, cells fed with added oleic acid
[2] = measured here: lipid fluorescence (Fed channel) AC50, cells fed with added oleic acid

| SMILES | cell number change | AC50 [1] | AC50 [2] |
| --- | --- | --- | --- |
| Cc1nc(NC(=O)c2ccc(Cl)cc2)sc1-c1csc(Nc2cccc(F)c2)n1 | -36.8% | 16.4 µM [falling, single point] | 11.6 µM [falling, partial curve] |
| C/C(CCC12CC3CC(CC(C3)C1)C2)=N\NC(N)=S | 0.806% | 6.51 µM [rising, single point] | 16.4 µM [rising, partial curve] |
| COc1ccc(S(=O)(=O)N(CC(=O)NCC2CCCO2)c2ccc(Cl)cc2)cc1 (centres undefined) | 3.04% | – | 0.58 µM [rising, single point] |
| COc1ccc(CNC(=O)C/C(C)=N/NC(=O)COc2ccc(Br)cc2)cc1 | 36.7% | 0.0206 µM [rising, full curve, poor fit] | – |
| COc1ccc(S(=O)(=O)N(C)C)cc1NC(=O)CN1C(=O)NC2(CCCC2)C1=O | 5.26% | – | – |
| CCc1ccccc1NC(=S)N1CCN(c2ccccc2F)CC1 | -4.85% | – | 2.59 µM [rising, partial curve] |
| CCN(CCNC(=O)C1CCCN(c2ncnc3c2nc2n3CCCCC2)C1)Cc1ccccc1 (centres undefined) | -4.01% | – | 0.58 µM [rising, single point] |
| CCOC(=O)CSc1nc(N2CCOCC2)c2c(c1C#N)CC(C)(C)N(C)C2 | -21.8% | – | 0.651 µM [falling, single point] |
| Cc1cc(C)n2nc(C(=O)N/N=C/c3ccco3)nc2n1 | -28.2% | – | 0.082 µM [falling, full curve, poor fit] |
| CC1C/C(=N\NC(=O)c2ccc([N+](=O)[O-])cc2)CC(C)(C)C1 (centres undefined) | -20.5% | – | – |
| Cc1cccc(NC(=O)c2sc3ncn(CC(=O)N4CCN(c5ccccn5)CC4)c(=O)c3c2C)c1 | -24.4% | – | – |
| O=C(CN1CCN(CC(=O)Nc2ccccc2Cl)CC1)NCC1(N2CCCCC2)CCCCC1 | 21.5% | – | 32.6 µM [rising, single point] |
| C/C(=N\Nc1ncc(Cl)cc1Cl)c1ccccn1 | -66.9% | 29.1 µM [falling, single point] | 29.1 µM [falling, single point] |
| Cc1c(OCC(=O)NCCCN2CCOCC2)ccc2c1oc(=O)c1ccccc12 | 5.38% | – | – |
| COc1cc(C2c3c(c(C)c(C)oc3=O)Oc3c(C)c(C)oc(=O)c32)ccc1OS(=O)(=O)c1ccc(C)cc1 | -9.27% | – | – |
| COc1ccccc1NC1=C(NC(C)=O)C(=O)c2ccccc2C1=O | – | 1.3 µM [rising, full curve] | 2.06 µM [rising, partial curve] |
| Cc1cccc(N2N=C(C(=O)N3CC(=O)Nc4ccccc43)CCC2=O)c1 | 30.6% | 29.1 µM [rising, single point] | 29.1 µM [rising, single point] |
| O=C(NCCOc1ccccc1F)C1CC(=O)N(c2ccc3c(c2)OCCO3)C1 (centres undefined) | 1.17% | – | 13 µM [rising, partial curve] |
| NC(=O)c1cc2nc(-c3ccco3)cc(C(F)(F)F)n2n1 | -9.57% | – | 2.06 µM [rising, partial curve, poor fit] |
| O=C(CCc1ccccc1)Nc1ccccc1C(=O)N1CCOCC1 | -12.1% | – | 0.164 µM [falling, full curve, poor fit] |
| COc1ccc(-c2csc3nc(-c4cccnc4)nc(Cl)c23)cc1OC | -17% | – | – |
| Cc1c(Cl)cccc1NC(=O)N1CCCC1 | -8.68% | – | 0.00461 µM [falling, full curve, poor fit] |

Looked up by compound from the list above (2):

| SMILES | cell number change | AC50 [1] | AC50 [2] |
| --- | --- | --- | --- |
| COc1ccc(CNC(=O)C/C(C)=N/NC(=O)COc2ccc(Br)cc2)cc1 | 36.7% | 0.0206 µM [rising, full curve, poor fit] | – |
| COc1ccc(-c2csc3nc(-c4cccnc4)nc(Cl)c23)cc1OC | -17% | – | – |

Next part.

| SMILES | cell number change | AC50 [1] | AC50 [2] |
| --- | --- | --- | --- |
| CC1CCc2c(nc3ncnn3c2NCCN(C)C)C1 (centres undefined) | – | 6.51 µM [rising, single point] | – |
| Cc1ccc(/C=N/NC(=O)c2ccc3ccccc3c2)s1 | -40.1% | 32.6 µM [falling, single point] | 29.1 µM [rising, single point] |
| O=C(NCc1ccccn1)c1ccc(=O)oc1 | 7.25% | – | 11.6 µM [falling, partial curve, poor fit] |
| O=[N+]([O-])c1ccc(-c2cc(-c3ccncc3)nc3ccc4ccccc4c23)cc1 | 4.73% | – | 29.1 µM [rising, single point] |
| CC(C)C(Nc1ccc(S(=O)(=O)N2CCOCC2)cc1[N+](=O)[O-])C(=O)O (centres undefined) | -34.7% | 0.116 µM [falling, full curve, poor fit] | – |
| COc1ccc(C(CNC(=O)C2CCN(S(=O)(=O)c3ccc(F)cc3)CC2)N(C)C)cc1 (centres undefined) | – | 5.17 µM [rising, single point] | – |
| Cc1ccc(CNC(=O)COC(=O)c2ccc(S(=O)(=O)N3CCCC3)cc2)cc1 | -3.77% | – | 0.0731 µM [falling, full curve, poor fit] |
| COc1cc(NC(=O)CN(C)S(=O)(=O)c2ccc3c(c2)CC(C)N3C(C)=O)cc(OC)c1OC (centres undefined) | -3.28% | – | 0.291 µM [rising, full curve] |
| COc1cccc(OC)c1C(=O)Nn1c(-c2cccs2)nc2ccccc2c1=O | 0.563% | – | 0.00731 µM [falling, full curve, poor fit] |
| Cc1ccc(CNC(=O)N2CCN(C)CC2)cc1 | 5.82% | – | 0.82 µM [falling, single point] |
| CCC(C)c1ccc(O)c(NC(=O)c2cncc(Br)c2)c1 (centres undefined) | -31.7% | 0.082 µM [falling, full curve, poor fit] | – |
| CSc1ccc(C#N)cc1NC(=O)c1ccc(Cl)cc1 | – | 1.46 µM [rising, partial curve] | 1.3 µM [rising, partial curve] |
| C=CCn1c(=O)c2c3c(sc2n2c(Nc4ccccc4)nnc12)CCCC3 | -5.89% | 0.0517 µM [rising, full curve] | 0.058 µM [rising, full curve, poor fit] |
| COc1ccc(S(=O)(=O)N2CCOCC2)cc1NC(=O)CSc1nnc(C2CC2)n1N | 38.3% | 13 µM [rising, single point] | – |
| CCOC(=O)C(Cc1ccccc1)(NC(C)=O)C(=O)OCC | -21.9% | – | – |
| Cc1c(C)n(C)c2ccc(C(=O)NCCN3CCOCC3)cc12 | -1.22% | – | 29.1 µM [rising, single point] |
| O=C(c1ccccc1)C1CN(c2ccccc2)CC1c1ccc(Cl)cc1 (centres undefined) | 24.8% | – | 0.58 µM [falling, single point] |
| COc1ccccc1OC(C)C(=O)Nc1ccc2c(c1)OCCO2 (centres undefined) | 3.15% | – | – |
| O=C(NNc1ccccc1[N+](=O)[O-])Nc1ccc(F)cc1F | 6.58% | – | – |
| CN1CCN(S(=O)(=O)c2ccc(Oc3ccc(Br)cc3F)nc2)CC1 | 37.3% | 1.3 µM [rising, full curve] | 1.64 µM [rising, full curve] |
| CC1CCCN(C(=O)Cn2nnc(-c3ccc(N(C)C)cc3)n2)C1 (centres undefined) | 11.9% | – | 29.1 µM [falling, single point] |
| Cc1cc(C)nc(/N=C(\N)Nc2ccccc2-c2ccccc2)n1 | -57.8% | 20.6 µM [falling, single point] | 29.1 µM [falling, single point] |

Of the compounds above, these have a furan ring, fused or not:

| SMILES | cell number change | AC50 [1] | AC50 [2] |
| --- | --- | --- | --- |
| Cc1cc(C)n2nc(C(=O)N/N=C/c3ccco3)nc2n1 | -28.2% | – | 0.082 µM [falling, full curve, poor fit] |
| NC(=O)c1cc2nc(-c3ccco3)cc(C(F)(F)F)n2n1 | -9.57% | – | 2.06 µM [rising, partial curve, poor fit] |

Additional structures:

| SMILES | cell number change | AC50 [1] | AC50 [2] |
| --- | --- | --- | --- |
| CCN1CCN(c2ccc(S(=O)(=O)N3CCCCC3)cc2N)CC1 | -17.5% | – | 0.58 µM [rising, partial curve] |
| CC(=O)N/C(=C/c1ccc(OC(F)F)cc1)C(=O)O | -24.2% | – | 0.116 µM [falling, full curve, poor fit] |
| O=C1c2ccccc2C(=O)N1Nc1ccccc1 | -3.74% | – | – |
| COc1ccc(-c2ccc(-c3nnc(-c4cc(OC)ccc4OC)o3)cc2)cc1 | 3.59% | – | 0.82 µM [rising, single point] |
| CCOc1ccc2nc(NC(=O)CSC3=NCCS3)sc2c1 | -19.9% | – | 29.1 µM [falling, single point] |
| COC(=O)Cn1cnc2sc3c(c2c1=O)CCCC3 | -27.8% | – | – |
| CC(C)c1ccc(/C=N/NC(=O)c2nnn(-c3nonc3N)c2CN2CCOCC2)cc1 | 1.61% | – | – |
| COc1ccc(NC(=O)COC(=O)C2CC3C=CC2C3)cc1 (centres undefined) | 8.78% | – | – |
| Cc1ccc(C(=O)Nc2ccccc2N2CCCCC2)o1 | -9.68% | – | – |
| CC(C)(C)n1nnnc1C(c1ccncc1)N1CCN(c2ccc(O)cc2)CC1 (centres undefined) | 20% | – | 16.4 µM [rising, single point] |
| COC(=O)c1sc(NC(=O)COc2ccccc2)nc1C | 150% | 29.1 µM [rising, single point] | – |
| Cc1csc(C(=O)O)c1NC(=O)c1ccc(F)cc1 | 22.5% | – | 6.51 µM [rising, single point] |
| Cc1ccc(NC(=O)c2ccco2)c(NC(=O)Cc2cccs2)c1 | 27.7% | 0.231 µM [rising, full curve, poor fit] | – |
| N#C/C(=C\c1cccc(OCC(=O)O)c1)c1nc2ccccc2[nH]1 | -11% | – | 0.13 µM [rising, full curve, poor fit] |
| CC1CC(C)CN(S(=O)(=O)c2ccc(NC(=O)CN3CCCCCC3)cc2)C1 (centres undefined) | 15.3% | – | – |
| O=C(O)CC(C(=O)Nc1ccc(Cl)cc1)N1CCCCCC1 (centres undefined) | 1.55% | – | – |
| Clc1ccc(-c2n[nH]c3c2CCCC3)cc1 | -28.8% | – | 23.1 µM [falling, single point] |
| O=C1c2ccccc2C(Nc2ccc3c(c2)OCCO3)N1c1ccc(Cl)cn1 (centres undefined) | 43.9% | 11.6 µM [rising, partial curve, poor fit] | 10.3 µM [rising, partial curve] |
| O=C(O)C1Cc2c([nH]c3ccccc23)C(c2ccc3c(c2)OCO3)N1 (centres undefined) | -12.2% | – | 0.731 µM [rising, single point] |
| COc1ccc(C(=O)Nc2ccc3nc(N4CCCCC4)cc(C)c3c2)c(OC)c1 | 12.1% | – | 0.206 µM [rising, full curve, poor fit] |
